# Reference: US7402575B2, “Methods of treating inflammation” (priority 2003, dated 2008)
# For at least one compound, name, drawing or mass did not settle the structure.
# Tested on: nitric-oxide guanosine 3′,5′cyclic monophosphate pathway
# Assay: Effect of NOS, guanylyl cyclase and PKG inhibitors on lysozyme's myocardial depressant effect in right ventricular trabecular preparation
# Assay type: cell-based, dog
# Experimental: The right ventricular trabecular preparation used in this study has previously been described. Briefly, mongrel dogs (3 to 10 kg) were anesthetized with pentobarbital. The hearts were removed, flushed with 50 ml of Krebs-Henseleit solution (KH), and placed in ice-cold KH bubbled with a mixture of 95% O2 and 5% CO2. Three to four thin trabeculae (<1 mm diameter) were obtained from the right ventricle and were tied at each end with 6-O silk thread. Each thin muscle was suspended in a 5 ml vertical constant temperature bath that contained KH. The muscle was stimulated electrically via punctate platinum bipolar electrodes with rectangular pulses (1 ms duration) at an intensity of 50% above threshold delivered at intervals of 2,000 ms. The trabeculae were stretched to optimal length.
# The plasma concentration of lysozyme attained in the inventors' sepsis model is approximately 10^−8M, and the 10^−7M to 10^−9M range was used in the experiments described below. Lysozyme was purified from the spleens of nonseptic dogs as previously described. Measurements were obtained at 5 minute intervals. […]
# In separate experiments, the respective roles of eNOS, nNOS, and iNOS were evaluated in which the objective was to determine which of the NOS isoforms was responsible for the myocardial depression observed with lysozyme. […]
# The results are expressed as a percent of baseline isometric tension. […]
structure (smiles),measurement,value
CC(=N)NCc1cccc(CN)c1.Cl.Cl [iNOS],Concentration of the NOS inhibitor at which lysozyme's depressant effect was prevented,10^−5M to 10^−7M
